Data source: PubChem BioAssay AID1224826 (NIAID, 2016)
Purpose: 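Genes that change LPS-induced Tnf promoter activity in mouse macrophages when knocked down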 (primary screen). System: RAW264.7 G9 macrophages from mouse bearing reporters for p65 (GFP) and the Tnf promoter (mCherry). Knock-down reagent: siRNA pool against mouse genes, 100 nM. Duration: 16 h of LPS stimulation, after 2 days of siRNA transfection. Treatment: bacterial lipopolysaccharide (Salmonella minnesota R595), 10 ng/ml. Measurement: 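Imaged Tnf reporter mCherry in nuclei, minus background, normalised per plate to the median and expressed as robust z-scores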. Scale: Tnf reporter robust z-score: higher = stronger Tnf promoter reporter signal after LPS. Active means: 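a well counts as active at a score of -1.3 or below (Tlr4 knock-down control median) or above 3 (raised signal); controls and wells holding fewer than 50 cells are excluded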. Meaning of the calls: active = Tnf reporter clearly lowered or raised; inactive = no clear change in Tnf reporter.
In all, the deposit lists about 17,000 reagents; shown is a part drawn at random. About 1,110 of them (6.6%) count as active. 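Active means lowered or raised reporter signal; replicate intensities are raw and not normalised per plate.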 A number with no mark means an inactive call. Not all columns of the deposit are shown. Reagent sequences are not shown.

Silencing of Ets1 (Ets proto-oncogene 1, transcription factor) [SID315470206] came out at: Tnf reporter robust z-score 1.67; fewer than 50 cells in well enough cells in well.
Against Serpini2 (serine (or cysteine) peptidase inhibitor, clade I, member 2) [SID315473317], the values are Tnf reporter robust z-score 0.65; fewer than 50 cells in well enough cells in well.
Silencing of Cacnb4 (calcium channel, voltage-dependent, beta 4 subunit) [SID315465718] resulted in: Tnf reporter robust z-score -1.47 (active); fewer than 50 cells in well enough cells in well.
Against Cwh43 (cell wall biogenesis 43 C-terminal homolog) [SID315478882] the deposit lists fewer than 50 cells in well fewer than 50 cells per well; well left out of calls.
Silencing of Wasf3 (WASP family, member 3) [SID315479846] gave: Tnf reporter robust z-score 0.44; fewer than 50 cells in well enough cells in well.
Silencing of Ly6f (lymphocyte antigen 6 family member F) [SID315467783] gave: Tnf reporter robust z-score -0.03; fewer than 50 cells in well enough cells in well.
Against H3f3b (H3.3 histone B) [SID315467136], the entry reads Tnf reporter robust z-score 1.72; fewer than 50 cells in well enough cells in well.
After knock-down of Or8k3 (olfactory receptor family 8 subfamily K member 3) [SID315480622], the screen gave Tnf reporter robust z-score 1.09; fewer than 50 cells in well enough cells in well.
Rnf8 (ring finger protein 8) [SID315471886] scored Tnf reporter robust z-score -1.69 (active); fewer than 50 cells in well enough cells in well.
After knock-down of Pim3 (Pim3, proto-oncogene, serine/threonine kinase) [SID315478293], the record shows Tnf reporter robust z-score 1.08; fewer than 50 cells in well enough cells in well.
With knock-down of Bcar1 (breast cancer anti-estrogen resistance 1) [SID315466119], the record shows Tnf reporter robust z-score -0.06; fewer than 50 cells in well enough cells in well.
With knock-down of Mx1 (MX dynamin-like GTPase 1) [SID315468041] the results were Tnf reporter robust z-score -1.11; fewer than 50 cells in well enough cells in well.
After knock-down of Glra1 (glycine receptor, alpha 1 subunit) [SID315466929], the record shows Tnf reporter robust z-score -1.02; fewer than 50 cells in well enough cells in well.
After knock-down of Fam184b (family with sequence similarity 184, member B) [SID315471884], the record shows Tnf reporter robust z-score -0.05; fewer than 50 cells in well enough cells in well.
Against 2010204K13Rik (RIKEN cDNA 2010204K13 gene) [SID315473515], the values are fewer than 50 cells in well fewer than 50 cells per well; well left out of calls.
After knock-down of Or51a10 (olfactory receptor family 51 subfamily A member 10) [SID315480017], the record shows Tnf reporter robust z-score 1.37; fewer than 50 cells in well enough cells in well.
After knock-down of Parp2 (poly (ADP-ribose) polymerase family, member 2) [SID315465323] the results were Tnf reporter robust z-score 0.12; fewer than 50 cells in well enough cells in well.
With knock-down of Fbxo5 (F-box protein 5) [SID315472863] the results were Tnf reporter robust z-score 0.07; fewer than 50 cells in well enough cells in well.
Oas1h (2'-5' oligoadenylate synthetase 1H) [SID315479889] scored Tnf reporter robust z-score 0.47; fewer than 50 cells in well enough cells in well.
With knock-down of D030056L22Rik (RIKEN cDNA D030056L22 gene) [SID315478454], the screen gave Tnf reporter robust z-score -0.24; fewer than 50 cells in well enough cells in well.
With knock-down of Fbxw9 (F-box and WD-40 domain protein 9) [SID315473588], the record shows Tnf reporter robust z-score 0.76; fewer than 50 cells in well enough cells in well.

No new results follow: 2 of the entries above.
Bcar1 (breast cancer anti-estrogen resistance 1) [SID315466119] | Tnf reporter robust z-score: -0.06; fewer than 50 cells in well: enough cells in well
Mx1 (MX dynamin-like GTPase 1) [SID315468041] | Tnf reporter robust z-score: -1.11; fewer than 50 cells in well: enough cells in well
